Results published in PubChem BioAssay AID330 (DTP/NCI, 2004).
The list is a part of this screen's results and no random one: it is rich in T/C values a quarter to a half above the control, in often repeated tests (any T/C) and in doses without a T/C. Further doses and runs are listed elsewhere. T/C is the treated group as % of the vehicle group. Some entries give survivors of the animals treated and no T/C: the source files T/C as zero there, which appears to mark a toxic dose or a test without result, not a measured value. Some doses without a T/C left all or most animals alive at the check, yet need not have been tolerated: the source hardly ever lists a survival T/C far under the control, and the zero likely stands for such cases as well. Survivors were counted at the toxicity check, usually on the fifth day, unless a day is given; later deaths do not show. Schedule codes are those of the source, read here as Q, the interval in days (D) or hours (H), X, the number of doses. Some doses were run more than once; the values are given in rising order. For survival time, the PubChem record calls one and a half times the control and up active, and a quarter to a half above the control has no call in these data; cut-offs in other NCI protocols can differ. Some T/C values carry the count of animals alive at the toxicity check (mostly the fifth day); where none is given, no animal had died by that day.

Test system: P388 leukemia ip, CD2F1 mice, survival T/C
Test: NCI In Vivo Anticancer Drug Screen. Data for tumor model P388 Leukemia (intraperitoneal) in CD2F1 (CDF1) mice
Conditions: T/C endpoint: median survival time, higher T/C = longer survival
[1] = dose: 400.0 mg/kg/injection, schedule: Q04DX003 (ip), vehicle: Klucel (hydroxypropylcellulose) (HPC)
[2] = dose: 240.0 mg/kg/injection, schedule: Q01DX005 (ip), vehicle: saline with Tween-80
[3] = dose: 60.0 mg/kg/injection, schedule: Q01DX005 (ip), vehicle: saline with Tween-80
[4] = dose: 120.0 mg/kg/injection, schedule: Q01DX005 (ip), vehicle: saline with Tween-80
[5] = dose: 200.0 mg/kg/injection, schedule: Q01DX009 (ip), vehicle: saline
[6] = dose: 50.0 mg/kg/injection, schedule: Q01DX005 (ip), vehicle: saline with Tween-80
[7] = dose: 100.0 mg/kg/injection, schedule: Q01DX005 (ip), vehicle: saline with Tween-80
[8] = dose: 200.0 mg/kg/injection, schedule: Q01DX005 (ip), vehicle: saline with Tween-80
[9] = dose: 25.0 mg/kg/injection, schedule: Q01DX005 (ip), vehicle: saline with Tween-80
[10] = dose: 100.0 mg/kg/injection, schedule: Q01DX009 (ip), vehicle: saline
[11] = dose: 400.0 mg/kg/injection, schedule: Q01DX001 (ip), vehicle: saline with Tween-80

## COc1ccc(-c2c(N)cnc(C)c2C)c(OC)c1OC
dose: 200.0 mg/kg/injection, schedule: Q01DX009 (ip), vehicle: other
  survivor count: 1 of 6

## CCOC(=O)/C(=C\Nc1cccc(OCc2ccccc2)c1)NC(=O)c1ccccc1
dose: 100.0 mg/kg/injection, schedule: Q01DX009 (ip), vehicle: Klucel (hydroxypropylcellulose) (HPC)
  survivor count: 6 of 6
dose: 400.0 mg/kg/injection, schedule: Q01DX009 (ip), vehicle: Klucel (hydroxypropylcellulose) (HPC)
  survivor count: 3 of 6

## O/C(=C\C(=S)S)c1ccccc1
dose: 12.5 mg/kg/injection, schedule: Q04DX003 (ip), vehicle: Klucel (hydroxypropylcellulose) (HPC)
  survivor count: 5 of 6
dose: 25.0 mg/kg/injection, schedule: Q04DX003 (ip), vehicle: Klucel (hydroxypropylcellulose) (HPC)
  survivor count: 0 of 6
dose: 50.0 mg/kg/injection, schedule: Q04DX003 (ip), vehicle: Klucel (hydroxypropylcellulose) (HPC)
  survivor count: 0 of 6
dose: 100.0 mg/kg/injection, schedule: Q04DX003 (ip), vehicle: Klucel (hydroxypropylcellulose) (HPC)
  survivor count: 2 of 6
dose: 200.0 mg/kg/injection, schedule: Q04DX003 (ip), vehicle: Klucel (hydroxypropylcellulose) (HPC)
  survivor count: 0 of 6
[1]
  survivor count: 0 of 6

## C=C(C)C(=O)OC1C/C(CO)=C\C(OC(C)=O)C/C(C)=C/C2OC(=O)C(=C)C21 (configuration not stated)
dose: 30.0 mg/kg/injection, schedule: Q01DX009 (ip), vehicle: saline + alcohol
  T/C: 130 % of control

## Cc1nc(C(=O)O)c(C(=O)O)[nH]1
dose: 50.0 mg/kg/injection, schedule: Q01DX009 (ip), vehicle: saline sonified
  survivor count: 6 of 6

## N#CNC1=NCOCN1
[2]
  survivor count: 2 of 6

## Cc1cc(N=[N+]=[N-])c2ccc(Cl)cc2n1
[2]
  survivor count: 3 of 6

## CCN1C(Cl)=NS(=O)(=O)c2ccccc21
[3]
  survivor count: 4 of 6
[4]
  survivor count: 1 of 6
[2]
  survivor count: 0 of 6

## COc1ccc(OC)c(N=Cc2ccc(C=Nc3cc(OC)ccc3OC)cc2)c1
[5]
  survivor count: 6 of 6

## CC[P+](CC)(c1ccccc1)c1ccccc1
[6]
  survivor count: 0 of 6
[7]
  survivor count: 0 of 6
[8]
  survivor count: 0 of 6

## COc1cc(C)ccc1C1=NC(C)(c2ccc(C)cc2OC)NC1=S (configuration not stated)
dose: 150.0 mg/kg/injection, schedule: Q01DX009 (ip), vehicle: Klucel (hydroxypropylcellulose) (HPC)
  survivor count: 5 of 6

## CC(=O)Nc1nnc(-c2coc3ccc(C)cc3c2=O)s1
[9]
  survivor count: 6 of 6
[6]
  survivor count: 6 of 6
[7]
  survivor count: 6 of 6
[8]
  survivor count: 6 of 6

## O=[N+]([O-])c1cc([N+](=O)[O-])c(N2CC2)cc1C1=NCCO1
dose: 200.0 mg/kg/injection, schedule: Q01DX009 (ip), vehicle: Klucel (hydroxypropylcellulose) (HPC)
  survivor count: 3 of 6

## CNCC(=O)NC(CO)C(=O)NC(CO)C(=O)NC1C(C(N)=O)OC(n2ccc(N)nc2=O)C(O)C1O (configuration not stated)
dose: 1.6 mg/kg/injection, schedule: Q01DX009 (ip), vehicle: water
  survivor count: 6 of 6

## [CH3][Sn]1([CH3])[O]c2ccccc2C=NCCN=Cc2ccccc2[O]1
dose: 50.0 mg/kg/injection, schedule: Q01DX009 (ip), vehicle: saline
  T/C: 127 and 129 % of control
[10]
  T/C: 126 and 143 % of control
[5]
  survivor count: 2 of 6

## c1ccc2c(c1)NCCOCCNc1ccccc1OCCNCCO2
dose: 200.0 mg/kg/injection, schedule: Q01DX001 (ip), vehicle: saline with Tween-80
  survivor count: 6 of 6
[11]
  survivor count: 0 of 6

## CC1C(=O)C=C(c2ccccc2)C1(O)c1ccccc1 (configuration not stated)
[11]
  survivor count: 4 of 6

## COc1nncc(-c2cnnc(OC)n2)n1
dose: 25.0 mg/kg/injection, schedule: Q01DX009 (ip), vehicle: saline with Tween-80
  survivor count: 5 of 6

## C[n+]1c(SCC(=O)O)sc2ccccc21
[10]
  T/C: 128 and 137 % of control
[5]
  survivor count: 3 of 6

## CC(C)Sc1ncnc2nc[nH]c12
dose: 400.0 mg/kg/injection, schedule: Q04DX003 (ip), vehicle: saline with Tween-80
  survivor count: 3 of 6

## CCCCCCCCCCCC[S+](C)CCCCCCCC (configuration not stated)
dose: 1.56 mg/kg/injection, schedule: Q01DX005 (ip), vehicle: saline with Tween-80
  T/C: 126 % of control
dose: 3.13 mg/kg/injection, schedule: Q01DX005 (ip), vehicle: saline with Tween-80
  T/C: 128 % of control
dose: 6.25 mg/kg/injection, schedule: Q01DX005 (ip), vehicle: saline with Tween-80
  survivor count: 4 of 5 and 5 of 6
dose: 12.5 mg/kg/injection, schedule: Q01DX005 (ip), vehicle: saline with Tween-80
  survivor count: 1 of 5
[9]
  survivor count: 0 of 5
[6]
  survivor count: 0 of 5
[7]
  survivor count: 0 of 5
[8]
  survivor count: 0 of 5

## [Cl][Pt+2][Cl].[NH-]CC(=O)O.[NH-]CC(=O)O
dose: 6.25 mg/kg/injection, schedule: Q01DX009 (ip), vehicle: water
  T/C: 128 % of control
dose: 25.0 mg/kg/injection, schedule: Q01DX009 (ip), vehicle: water
  T/C: 128 % of control
dose: 100.0 mg/kg/injection, schedule: Q01DX009 (ip), vehicle: water
  survivor count: 6 of 6

## CC1(C)C2CCC(CN)C1C2 (configuration not stated)
dose: 100.0 mg/kg/injection, schedule: Q01DX009 (ip), vehicle: other
  survivor count: 0 of 6

## C1=C(c2ccccc2)C(=Nc2ccccc2)SC1=Nc1ccccc1
dose: 3.75 mg/kg/injection, schedule: Q01DX005 (ip), vehicle: saline with Tween-80
  T/C: 140 % of control
dose: 7.5 mg/kg/injection, schedule: Q01DX005 (ip), vehicle: saline with Tween-80
  T/C: 130 % of control
dose: 15.0 mg/kg/injection, schedule: Q01DX005 (ip), vehicle: saline with Tween-80
  survivor count: 4 of 6
dose: 30.0 mg/kg/injection, schedule: Q01DX005 (ip), vehicle: saline with Tween-80
  survivor count: 0 of 6
[3]
  survivor count: 0 of 6
[4]
  survivor count: 0 of 6
[2]
  survivor count: 0 of 6

## CN(C)C1C(O)C2Oc3c(cc(O)c4c3C(=O)c3cc5c(c(O)c3C4=O)C(N=[N+]=N)CC(C)(O)C5)C(C)(O2)C1O (configuration not stated)
dose: 2.5 mg/kg/injection, schedule: Q01DX009 (ip), vehicle: other
  T/C: 125 % of control
dose: 5.0 mg/kg/injection, schedule: Q01DX009 (ip), vehicle: other
  T/C: 130 [5 of 6 alive] and 133 % of control
dose: 10.0 mg/kg/injection, schedule: Q01DX009 (ip), vehicle: other
  T/C: 131 % of control
dose: 20.0 mg/kg/injection, schedule: Q01DX009 (ip), vehicle: other
  survivor count: 5 of 6
dose: 40.0 mg/kg/injection, schedule: Q01DX009 (ip), vehicle: other
  survivor count: 0 of 6
dose: 80.0 mg/kg/injection, schedule: Q01DX009 (ip), vehicle: other
  survivor count: 0 of 6

## c1ccc2c[n+](CC[n+]3ccc4ccccc4c3)ccc2c1
dose: 100.0 mg/kg/injection, schedule: Q01DX009 (ip), vehicle: saline with Tween-80
  survivor count: 6 of 6

## COC1=Nc2ccccc2S(=O)(=O)C=C1
[4]
  survivor count: 3 of 6
[2]
  survivor count: 1 of 6

## CC(C)(C)C1CCC=CC(=O)C1 (configuration not stated)
[1]
  survivor count: 2 of 6

## [Cl][Sn]1([c]2ccccc2)[O]CCNCC[O]1
[10]
  T/C: 140 % of control
[5]
  T/C: 137 % of control
dose: 200.0 mg/kg/injection, schedule: Q01DX009 (ip), vehicle: suspension in saline
  T/C: 126 % of control

## O=C1C=CC(=O)C2=C1CCOC2c1ccccc1 (configuration not stated)
[7]
  survivor count: 1 of 6
[8]
  survivor count: 0 of 6

## COc1cc2c(cc1OC)[C@H](Cc1ccc(Oc3cc4c(cc3O)-c3c(OC)c(OC)cc5c3[C@@H](C4)N(C)CC5)cc1)N(C)CC2
dose: 190.0 mg/kg/injection, schedule: Q01DX005 (ip), vehicle: Klucel (hydroxypropylcellulose) (HPC)
  survivor count: 3 of 6
